Among the data in publication PMC7819943, “Rice protein-binding microarrays: a tool to detect cis-acting elements near promoter regions in rice” are binding signal values, retold here.

Sequences of proteins named here, by UniProt entry; tags and fusion partners are left off.
UniProt Q0JBA9, entry or part of it: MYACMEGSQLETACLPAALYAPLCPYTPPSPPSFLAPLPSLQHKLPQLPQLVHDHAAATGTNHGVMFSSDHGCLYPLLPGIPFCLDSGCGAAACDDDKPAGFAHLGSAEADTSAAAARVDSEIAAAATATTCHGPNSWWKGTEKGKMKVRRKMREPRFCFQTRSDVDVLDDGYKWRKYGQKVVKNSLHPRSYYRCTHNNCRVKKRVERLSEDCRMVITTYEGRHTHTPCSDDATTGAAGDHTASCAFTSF

This is one part of the list.

The assay has as its target OsWRKY34 (Oryza sativa, UniProt Q0JBA9 1-250). The assay is described as follows: protein-binding microarray (RPBM); PBS, 2% BSA, 51.3 ng/ul salmon testes DNA, 50 uM zinc acetate, 200 nM TF, 25 C, 1 h; high values mean tight binding. Conditions: protein: recombinant; tags: N-terminal polyhistidine and DsRed monomer fusion (pET32a); label: CyDye5-dUTP incorporated in the synthesized complementary strand; 3' TTTTT single-stranded linker to array surface; dsDNA, one strand shown. An outline of the steps: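 Per-feature fluorescence intensity (arbitrary units), read on an Axon 4000B scanner, is the binding signal. Transcription factors carrying an N-terminal polyhistidine tag and DsRed fusion were expressed in E. coli BL21-CodonPlus and purified on Ni–NTA. A custom Agilent array, made double-stranded by primer extension with Cy5-dUTP and blocked with 2% BSA, was incubated with 200 nM protein in PBS, 2% BSA, salmon testes DNA and 50 µM zinc acetate at 25 °C for 1 h and then washed.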
“ATCTCTCTCTAGAAGAGTCCACACCTCAAGTTTTACTGGTCGGAGTCACCTAGTGCAG”: the binding signal is 8410 fluorescence intensity (a.u.).
The value for “ACTATATACAACTAGTCATGCACCCTGCAGGTTGACTTTACGGAGTCACCTAGTGCAG” was 8270 fluorescence intensity (a.u.); that for “TGAGCATCTCGATCGATCATCTCTCTACACAACACGCACCCGGAGTCACCTAGTGCAG” was 9260 fluorescence intensity (a.u.).
In the case of “CATCCCGCCGCGAGCCACCTACACCCGTTCCACCATACGCCGGAGTCACCTAGTGCAG” it was 8550 fluorescence intensity (a.u.); in that of “GATAGGGTTTCTCATAGATGATGTGGTAGTTGATTTAGACCGGAGTCACCTAGTGCAG”, 8690 fluorescence intensity (a.u.); in that of “TCCGTTTTTTATGCGCACCCACCCCGGCATTTGCCTCCTTCGGAGTCACCTAGTGCAG”, 9690 fluorescence intensity (a.u.).
As for “CACCATCCAAAGTATATTGTGTCTTAAATTTCACGTATTTCGGAGTCACCTAGTGCAG”, the binding signal was 8110 fluorescence intensity (a.u.).
The value for “CACGTCATCAGGCATCCACCCGCCTCTCGATTGATTCCCCCGGAGTCACCTAGTGCAG” was 8320 fluorescence intensity (a.u.); that for “CACCCTTCATATGCCGTAAAAATGGTTTTGTTTGTAAAAACGGAGTCACCTAGTGCAG” was 9070 fluorescence intensity (a.u.); that for “AATTGGTAGGGTAAAGAACCAGGCGCATCTTGCAAATCATCGGAGTCACCTAGTGCAG” was 8190 fluorescence intensity (a.u.).
For the sequence “ATGTCTGTCTGTCTAGATTTATTAACATATATATGAATTTCGGAGTCACCTAGTGCAG”, the binding signal is 9270 fluorescence intensity (a.u.).
Regarding “ATATTTGACGCCGTTGACTTTTTTAAACATGTTTGACCGTCGGAGTCACCTAGTGCAG”, the binding signal was 44400 fluorescence intensity (a.u.).
The value for “GGCCACGCCCGCCTCCGCGATCGTCCTCGCCGGCGACTGCCGGAGTCACCTAGTGCAG” was 8410 fluorescence intensity (a.u.); that for “ATCCTCCATCCAATGAACGCCACACAGCTCTCAACCATATCGGAGTCACCTAGTGCAG” was 11700 fluorescence intensity (a.u.).
The value for “TATGTTGTTTCCAAAGTCTTATTTTCATTTTCTTTTGATGCGGAGTCACCTAGTGCAG” was 9580 fluorescence intensity (a.u.); that for “CTGCCAACTTTTGCCTAAGCAAGCCTGTTTCGTTACCAGCCGGAGTCACCTAGTGCAG” was 10300 fluorescence intensity (a.u.); that for “TTAATTGTTGGGATCTAGTATATATTTTGTTCCTACATCACGGAGTCACCTAGTGCAG” was 8190 fluorescence intensity (a.u.).
As to “GCTACCTGTACTAAGTTATTTTGTTTTTTTAATGTTTCTTCGGAGTCACCTAGTGCAG”, the binding signal was 11700 fluorescence intensity (a.u.).
In the case of “TATTTCGTGAGAGAGCTTCACCCAGCTCCGCTTCTATTTTCGGAGTCACCTAGTGCAG” it was 8070 fluorescence intensity (a.u.); in that of “ACGCCGTTGACTTTTTAAGCAACATTTGACCATTCGTTTTCGGAGTCACCTAGTGCAG”, 30000 fluorescence intensity (a.u.).
In the case of “ATACGTGTACACAACCCATCCATCATCCTATAAGTGACAGCGGAGTCACCTAGTGCAG” it was 8090 fluorescence intensity (a.u.); in that of “GGATCCGTATGCTTTCGCACCCATGCTCGCGGCGTTTACTCGGAGTCACCTAGTGCAG”, 9280 fluorescence intensity (a.u.); in that of “CATCCGCCGCTCCTACTCTGGGCCCATGCTTCTGGCCTGACGGAGTCACCTAGTGCAG”, 10100 fluorescence intensity (a.u.).
As to “GTGAGTGTTTTATCTTTGTGGCTTACTTTGTCTGGGTCGCCGGAGTCACCTAGTGCAG”, the binding signal is 8860 fluorescence intensity (a.u.).
The value for “AGTTGCTTTCGGTCCTGTTTGCTCCCTCGCACTCTCTCGACGGAGTCACCTAGTGCAG” was 11000 fluorescence intensity (a.u.); that for “TTAATATACCACTACTTACCTTTTCATTGCTTTTTCTAAACGGAGTCACCTAGTGCAG” was 9070 fluorescence intensity (a.u.); that for “ATATTTAAAAAAGTCAACGGCGTCAAACATTTTGAGATAGCGGAGTCACCTAGTGCAG” was 9320 fluorescence intensity (a.u.).
As for “TAAAATTTTACTCTAGCTTTCAACTCACTTTATTTTATTACGGAGTCACCTAGTGCAG”, the binding signal was 9940 fluorescence intensity (a.u.).
Regarding “CTATTATCTCCAGGGTGGGGTGGGGCCCATACGGCCAGGACGGAGTCACCTAGTGCAG”, the binding signal is 10400 fluorescence intensity (a.u.).
In the case of “GGTCCTATCTTTCTCACACACATATAGCCTGTGTGTACGTCGGAGTCACCTAGTGCAG” it was 8170 fluorescence intensity (a.u.).
Regarding “TATTTCTGTCCAGTCGCCCGCTCGTATTATTTTGGAGCAACGGAGTCACCTAGTGCAG”, the binding signal is 10100 fluorescence intensity (a.u.).
In the case of “TAAATTTTTTCAAACTTGGCATTCTTCTCTCACGACTAAACGGAGTCACCTAGTGCAG” it was 8180 fluorescence intensity (a.u.).
On to “GCTCGCTGGATCTCTCCTCTTTCTCTCTCGCACCCTCTCCCGGAGTCACCTAGTGCAG”, for which the binding signal was 8030 fluorescence intensity (a.u.).
As for “GAAGCCCTGGTTCGAGCTCTGCTCTGCTCTGTGTTAACCACGGAGTCACCTAGTGCAG”, the binding signal was 8070 fluorescence intensity (a.u.).
On to “ATCCATCCATACAATGTGCATTTTTTTTGTTAGTGTTCTACGGAGTCACCTAGTGCAG”, for which the binding signal is 9950 fluorescence intensity (a.u.).
As to “CCATTTGTTTCTCTCTGGTGCAGTACTGCAGTGTACACAACGGAGTCACCTAGTGCAG”, the binding signal is 8750 fluorescence intensity (a.u.).
On to “TCCTCGATTGATCCGTTTCTTTATATACACACAGTACAACCGGAGTCACCTAGTGCAG”, for which the binding signal is 9270 fluorescence intensity (a.u.).
For “GTTCTACAACTTTGTTTTTTATGATTTCTTCATTTCAAATCGGAGTCACCTAGTGCAG”, the binding signal is 8480 fluorescence intensity (a.u.).
The value for “AGTAACATCAATTTTATATGTAATCTTTTTTTTATTATTACGGAGTCACCTAGTGCAG” was 8230 fluorescence intensity (a.u.); that for “CTACTGCTCCTACGCGCACGCCCCAACCCATCGGCGAATTCGGAGTCACCTAGTGCAG” was 10400 fluorescence intensity (a.u.); that for “GTATTTCCATTTCCTCTCTCTTCGCGGAGACTTATCGTCTCGGAGTCACCTAGTGCAG” was 10600 fluorescence intensity (a.u.).
For the sequence “TGATATCTTTTTCTTTAATGACTTTCCGTGTTTTCAACGTCGGAGTCACCTAGTGCAG”, the binding signal is 8090 fluorescence intensity (a.u.).
